Laboratory results as given in the supplement of paper PMC10849652.
The other results are listed elsewhere or left out.

Chains of the proteins cited; added tags and fusions are not shown. Lines headed by an entry give the natural chain unless they say otherwise; changes in a name come on top.
UniProt P62333, whole entry, looked up: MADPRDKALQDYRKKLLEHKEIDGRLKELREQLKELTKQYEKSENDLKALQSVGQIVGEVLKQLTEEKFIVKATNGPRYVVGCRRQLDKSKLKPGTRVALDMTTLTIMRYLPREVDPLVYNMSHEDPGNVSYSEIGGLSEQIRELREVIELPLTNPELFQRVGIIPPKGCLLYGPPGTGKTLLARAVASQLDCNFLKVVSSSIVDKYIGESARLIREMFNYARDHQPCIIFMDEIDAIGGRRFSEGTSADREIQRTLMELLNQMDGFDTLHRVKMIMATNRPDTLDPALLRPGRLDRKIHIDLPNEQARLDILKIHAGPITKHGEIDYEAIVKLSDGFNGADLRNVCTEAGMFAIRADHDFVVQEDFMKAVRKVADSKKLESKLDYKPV
UniProt P11908: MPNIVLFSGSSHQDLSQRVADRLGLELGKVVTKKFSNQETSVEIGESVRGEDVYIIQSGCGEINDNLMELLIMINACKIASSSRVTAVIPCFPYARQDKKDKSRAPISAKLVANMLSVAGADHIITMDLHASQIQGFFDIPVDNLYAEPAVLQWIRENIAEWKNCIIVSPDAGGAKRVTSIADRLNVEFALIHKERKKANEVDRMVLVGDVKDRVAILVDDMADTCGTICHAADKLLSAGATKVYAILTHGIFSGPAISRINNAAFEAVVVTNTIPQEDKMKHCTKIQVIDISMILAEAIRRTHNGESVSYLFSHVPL
UniProt P55036: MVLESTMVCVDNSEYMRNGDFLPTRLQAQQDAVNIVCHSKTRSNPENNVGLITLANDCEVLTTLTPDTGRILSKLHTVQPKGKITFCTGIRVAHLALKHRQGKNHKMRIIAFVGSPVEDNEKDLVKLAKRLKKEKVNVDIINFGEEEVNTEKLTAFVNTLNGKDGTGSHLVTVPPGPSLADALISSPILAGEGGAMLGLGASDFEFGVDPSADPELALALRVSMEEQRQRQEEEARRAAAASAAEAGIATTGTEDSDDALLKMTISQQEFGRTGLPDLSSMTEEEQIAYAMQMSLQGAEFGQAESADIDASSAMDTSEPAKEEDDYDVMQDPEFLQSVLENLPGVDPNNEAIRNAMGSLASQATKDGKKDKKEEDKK
UniProt Q9Y3E5: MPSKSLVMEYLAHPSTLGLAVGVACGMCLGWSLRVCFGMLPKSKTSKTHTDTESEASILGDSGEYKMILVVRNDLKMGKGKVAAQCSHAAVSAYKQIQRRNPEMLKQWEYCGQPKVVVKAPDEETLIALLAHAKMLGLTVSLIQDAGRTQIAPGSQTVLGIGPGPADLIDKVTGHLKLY
UniProt Q6PGN9: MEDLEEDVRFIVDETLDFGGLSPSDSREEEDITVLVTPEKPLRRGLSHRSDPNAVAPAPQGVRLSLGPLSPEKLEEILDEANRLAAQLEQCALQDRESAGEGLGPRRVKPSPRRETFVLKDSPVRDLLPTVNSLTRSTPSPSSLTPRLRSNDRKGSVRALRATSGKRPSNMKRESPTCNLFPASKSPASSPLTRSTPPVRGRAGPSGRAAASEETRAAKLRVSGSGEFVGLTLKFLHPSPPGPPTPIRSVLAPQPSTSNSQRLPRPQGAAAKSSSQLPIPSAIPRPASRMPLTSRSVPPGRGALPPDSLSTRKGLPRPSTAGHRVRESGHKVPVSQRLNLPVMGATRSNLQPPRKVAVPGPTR
UniProt Q9Y617: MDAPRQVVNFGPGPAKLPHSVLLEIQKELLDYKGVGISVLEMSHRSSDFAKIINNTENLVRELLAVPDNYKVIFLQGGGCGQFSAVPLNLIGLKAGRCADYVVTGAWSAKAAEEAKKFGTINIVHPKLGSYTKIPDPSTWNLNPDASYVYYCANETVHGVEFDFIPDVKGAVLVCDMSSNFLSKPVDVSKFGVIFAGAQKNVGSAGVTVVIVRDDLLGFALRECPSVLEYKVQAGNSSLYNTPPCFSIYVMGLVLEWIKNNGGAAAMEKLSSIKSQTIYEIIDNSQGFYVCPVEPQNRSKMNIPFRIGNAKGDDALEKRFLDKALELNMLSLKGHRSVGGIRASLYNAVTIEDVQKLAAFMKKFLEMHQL
UniProt P43378: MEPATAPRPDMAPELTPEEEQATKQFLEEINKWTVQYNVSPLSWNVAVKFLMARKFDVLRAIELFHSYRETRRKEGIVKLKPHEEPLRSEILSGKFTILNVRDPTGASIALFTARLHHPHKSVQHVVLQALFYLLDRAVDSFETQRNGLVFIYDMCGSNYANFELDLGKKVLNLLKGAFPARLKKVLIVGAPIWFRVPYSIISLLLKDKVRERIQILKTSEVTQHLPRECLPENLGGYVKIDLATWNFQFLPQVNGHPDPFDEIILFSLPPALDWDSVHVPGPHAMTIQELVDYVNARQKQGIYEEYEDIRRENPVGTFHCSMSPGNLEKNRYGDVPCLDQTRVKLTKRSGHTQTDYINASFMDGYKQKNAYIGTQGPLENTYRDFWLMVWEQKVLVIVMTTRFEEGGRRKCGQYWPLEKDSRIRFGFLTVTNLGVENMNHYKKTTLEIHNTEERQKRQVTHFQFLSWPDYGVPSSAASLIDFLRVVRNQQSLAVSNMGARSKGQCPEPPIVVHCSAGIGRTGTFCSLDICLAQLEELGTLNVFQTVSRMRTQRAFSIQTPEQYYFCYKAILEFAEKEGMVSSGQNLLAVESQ
UniProt P53801: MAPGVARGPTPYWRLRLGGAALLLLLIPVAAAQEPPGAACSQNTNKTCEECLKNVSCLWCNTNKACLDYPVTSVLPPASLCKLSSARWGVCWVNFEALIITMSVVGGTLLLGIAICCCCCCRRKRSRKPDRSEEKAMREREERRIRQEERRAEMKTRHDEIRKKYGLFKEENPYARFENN
UniProt Q96BW5: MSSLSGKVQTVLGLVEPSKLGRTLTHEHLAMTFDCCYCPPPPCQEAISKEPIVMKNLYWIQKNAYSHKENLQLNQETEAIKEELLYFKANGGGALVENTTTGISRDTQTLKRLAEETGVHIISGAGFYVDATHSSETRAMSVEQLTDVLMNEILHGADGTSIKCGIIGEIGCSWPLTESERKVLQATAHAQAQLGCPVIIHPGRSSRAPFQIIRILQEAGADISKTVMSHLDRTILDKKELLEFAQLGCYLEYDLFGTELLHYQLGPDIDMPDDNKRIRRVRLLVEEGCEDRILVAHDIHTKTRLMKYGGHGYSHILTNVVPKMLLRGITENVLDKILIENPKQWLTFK
UniProt P15151: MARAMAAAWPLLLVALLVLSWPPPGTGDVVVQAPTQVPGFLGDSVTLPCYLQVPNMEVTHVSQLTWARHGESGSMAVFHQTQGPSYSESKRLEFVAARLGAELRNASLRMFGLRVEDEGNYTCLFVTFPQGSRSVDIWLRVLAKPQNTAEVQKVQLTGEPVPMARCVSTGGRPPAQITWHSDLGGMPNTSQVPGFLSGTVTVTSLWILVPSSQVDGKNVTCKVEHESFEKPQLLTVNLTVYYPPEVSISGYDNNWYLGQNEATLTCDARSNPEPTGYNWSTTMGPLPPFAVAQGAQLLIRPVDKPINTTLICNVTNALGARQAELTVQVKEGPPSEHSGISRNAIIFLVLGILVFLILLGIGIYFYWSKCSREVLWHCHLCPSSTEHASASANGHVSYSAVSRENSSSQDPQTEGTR
UniProt P28065: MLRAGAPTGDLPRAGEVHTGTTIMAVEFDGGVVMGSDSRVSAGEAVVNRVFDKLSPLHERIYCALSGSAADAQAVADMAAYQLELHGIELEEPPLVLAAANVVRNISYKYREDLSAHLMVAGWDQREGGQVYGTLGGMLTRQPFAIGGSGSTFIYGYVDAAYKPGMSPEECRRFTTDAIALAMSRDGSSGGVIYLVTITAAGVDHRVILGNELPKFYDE
UniProt P51665: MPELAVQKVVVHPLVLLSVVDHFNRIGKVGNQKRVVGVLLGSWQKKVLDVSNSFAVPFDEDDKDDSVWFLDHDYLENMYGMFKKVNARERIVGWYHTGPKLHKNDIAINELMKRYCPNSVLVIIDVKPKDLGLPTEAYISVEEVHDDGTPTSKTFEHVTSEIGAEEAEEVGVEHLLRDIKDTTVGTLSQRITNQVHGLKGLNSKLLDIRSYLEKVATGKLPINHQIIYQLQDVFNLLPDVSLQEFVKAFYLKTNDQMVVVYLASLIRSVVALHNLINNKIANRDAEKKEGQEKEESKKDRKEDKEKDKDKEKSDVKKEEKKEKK
UniProt O95997: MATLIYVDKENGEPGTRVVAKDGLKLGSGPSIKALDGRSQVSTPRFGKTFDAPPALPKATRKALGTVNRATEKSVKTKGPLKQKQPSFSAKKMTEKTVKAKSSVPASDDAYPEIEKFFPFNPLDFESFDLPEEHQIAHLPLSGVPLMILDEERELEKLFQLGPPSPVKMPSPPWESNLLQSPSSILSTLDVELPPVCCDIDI

Assays:
Assay in all cases: log2 fold change, soluble protein after heating vs DMSO (PISA); higher = thermal stabilisation; K562 lysate, 10 uM; active = over 0.2 and 3.5 SD of the protein, either way, in both replicates (recomputed)
alvocidib = compound: CN1CC[C@H](c2c(O)cc(O)c3c(=O)cc(-c4ccccc4Cl)oc23)[C@H](O)C1 [alvocidib]
Method in brief: (§1)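 Dounce homogenisation of K562 pellets in PBS pH 7.4 with 1 mM MgCl2 produced a crude extract, used at 1 mg/mL protein. Exposure to 10 μM compound lasted 30 min, and aliquots were then heated for 3 min across 48°C-58°C, pooled and brought to 0.5% NP-40 at 4°C. The supernatant after 21,000xg for 90 min was quantified by TMTpro 16plex LC-MS/MS with channel sums equalised. Duplicate values are given as log-two fold change in thermal stability relative to solvent controls.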

Tubastatin A = compound: CN1CCc2c(c3ccccc3n2Cc2ccc(C(=O)NO)cc2)C1 [Tubastatin A]
Method in brief: as §1

[1] = compound: CNC(=O)C1=CC=CC=C1NC2=NC(=NC=C2Cl)NC3=C(C=C(C=C3)N4CCOCC4)OC
Method in brief: as §1

defactinib = compound: CNC(=O)c1ccc(Nc2ncc(C(F)(F)F)c(NCc3nccnc3N(C)S(C)(=O)=O)n2)cc1 [defactinib]
Method in brief: as §1

[2] = compound: CNc1nc(-c2ccc3c(N)n[nH]c3c2)cc(N2C[C@@H](C(=O)NC3CCCCC3)CC[C@H]2C)n1
Method in brief: as §1

encorafenib = compound: COC(=O)N[C@@H](C)CNc1nccc(-c2cn(C(C)C)nc2-c2cc(Cl)cc(NS(C)(=O)=O)c2F)n1 [encorafenib]
Method in brief: as §1

[3] = compound: COC(=O)[C@H](CCSC)NC(=O)C1=C(C=C(C=C1)NC[C@H](CS)N)C2=CC=CC=C2
Method in brief: as §1

alisertib = compound: COc1cc(Nc2ncc3c(n2)-c2ccc(Cl)cc2C(c2c(F)cccc2OC)=NC3)ccc1C(=O)O [alisertib]
Method in brief: as §1

[4] = compound: COc1cc2nc(-c3cc(F)ccc3O)nc(N[C@@H]3CNC[C@H]3C(C)(C)O)c2cc1OC
Method in brief: as §1

gefitinib = compound: COc1cc2ncnc(Nc3ccc(F)c(Cl)c3)c2cc1OCCCN1CCOCC1 [gefitinib]
Method in brief: as §1

lapatinib = compound: CS(=O)(=O)CCNCc1ccc(-c2ccc3ncnc(Nc4ccc(OCc5cccc(F)c5)c(Cl)c4)c3c2)o1 [lapatinib]
Method in brief: as §1

pictilisib = compound: CS(=O)(=O)N1CCN(Cc2cc3nc(-c4cccc5[nH]ncc45)nc(N4CCOCC4)c3s2)CC1 [pictilisib]
Method in brief: as §1

crizotinib = compound: C[C@@H](Oc1cc(-c2cnn(C3CCNCC3)c2)cnc1N)c1c(Cl)ccc(F)c1Cl [crizotinib]
Method in brief: as §1

[5] = compound: C[C@H](C1=CC=C(C=C1)C(=O)NC2=C3C=CNC3=NC=C2)N
Method in brief: as §1

duvelisib = compound: C[C@H](Nc1ncnc2nc[nH]c12)c1cc2cccc(Cl)c2c(=O)n1-c1ccccc1 [duvelisib]
Method in brief: as §1

gandotinib = compound: Cc1cc(Nc2cc(CN3CCOCC3)c3nc(C)c(Cc4ccc(Cl)cc4F)n3n2)n[nH]1 [gandotinib]
Method in brief: as §1

tozasertib = compound: Cc1cc(Nc2cc(N3CCN(C)CC3)nc(Sc3ccc(NC(=O)C4CC4)cc3)n2)n[nH]1 [tozasertib]
Method in brief: as §1

doramapimod = compound: Cc1ccc(-n2nc(C(C)(C)C)cc2NC(=O)Nc2ccc(OCCN3CCOCC3)c3ccccc23)cc1 [doramapimod]
Method in brief: as §1

bafetinib = compound: Cc1ccc(NC(=O)c2ccc(CN3CC[C@H](N(C)C)C3)c(C(F)(F)F)c2)cc1Nc1nccc(-c2cncnc2)n1 [bafetinib]
Method in brief: as §1

[6] = compound: Cc1cccc(CC(=O)N2CCc3c2ccc(-c2cn(C)c4ncnc(N)c24)c3F)n1
Method in brief: as §1

Target	log2 fold change (alvocidib)	log2 fold change (Tubastatin A)	log2 fold change [1]	log2 fold change (defactinib)	log2 fold change [2]	log2 fold change (encorafenib)	log2 fold change [3]	log2 fold change (alisertib)	log2 fold change [4]	log2 fold change (gefitinib)	log2 fold change (lapatinib)	log2 fold change (pictilisib)	log2 fold change (crizotinib)	log2 fold change [5]	log2 fold change (duvelisib)	log2 fold change (gandotinib)	log2 fold change (tozasertib)	log2 fold change (doramapimod)	log2 fold change (bafetinib)	log2 fold change [6]
PSMC6 (UniProt P62333)	inactive: 0.012	inactive: -0.055	inactive: 0.008	inactive: -0.017	inactive: -0.028	inactive: -0.003	inactive: 0.067	inactive: 0.001	inactive: 0.009	inactive: -0.012	inactive: -0.023	inactive: 0.014	inactive: -0.006	inactive: 0.018	inactive: 0.023	inactive: -0.111	inactive: -0.012	inactive: -0.003	inactive: 0.02	inactive: -0.023
PRPS2 isoform 2 (UniProt P11908)	inactive: 0.01	inactive: -0.022	inactive: -0.017	inactive: -0.028	inactive: -0.032	inactive: -0.009	inactive: -0.029	inactive: 0.004	inactive: 0.005	inactive: -0.021	inactive: -0.024	inactive: -0.038	inactive: 0.005	inactive: 0.025	inactive: 0.016	inactive: -0.016	inactive: 0.001	inactive: 0.021	inactive: 0.003	inactive: -0.037
PRPS1 (UniProt B1ALA9)	inactive: 0.009	inactive: 0.026	inactive: 0.009	inactive: 0.034	inactive: 0.028	inactive: 0.035	inactive: -0.064	inactive: 0.037	inactive: 0.01	inactive: -0.05	inactive: -0.004	inactive: -0.014	inactive: 0.015	inactive: -0.001	inactive: 0.016	inactive: -0.025	inactive: 0.034	inactive: -0.035	inactive: -0.036	inactive: 0.016
PSMD4 (UniProt P55036)	inactive: 0.005	inactive: 0.004	inactive: -0.013	inactive: 0.008	inactive: 0.036	inactive: 0.007	inactive: -0.017	inactive: -0.024	inactive: -0.005	inactive: -0.034	inactive: -0.005	inactive: -0.005	inactive: -0.001	inactive: 0.038	inactive: 0.008	inactive: 0.003	inactive: -0.019	inactive: 0.005	inactive: 0.022	inactive: -0.026
PTRH2 (UniProt Q9Y3E5)	inactive: 0.109	inactive: 0.065	inactive: 0.053	inactive: 0.049	inactive: 0.072	inactive: -0.001	inactive: -0.029	inactive: -0.087	inactive: 0.007	inactive: -0.051	inactive: 0.042	inactive: -0.019	inactive: -0.081	inactive: 0.032	inactive: 0.018	inactive: -0.04	inactive: -0.008	inactive: 0.028	inactive: 0.031	inactive: -0.07
PSRC1 (UniProt Q6PGN9)	inactive: 0.05	inactive: -0.069	inactive: 0.13	inactive: 0.009	inactive: -0.087	inactive: 0.152	inactive: -0.066	inactive: 0.018	inactive: -0.065	inactive: 0.064	inactive: 0.039	inactive: 0.01	inactive: -0.044	inactive: -0.068	inactive: -0.015	inactive: 0.234	inactive: 0.118	inactive: 0.233	inactive: -0.113	inactive: 0.095
PTPN11 isoform 1 (UniProt Q06124)	inactive: -0.001	inactive: -0.018	inactive: -0.033	inactive: -0.022	inactive: -0.01	inactive: -0.002	inactive: 0.006	inactive: -0.007	inactive: 0.004	inactive: 0.019	inactive: -0.004	inactive: 0.001	inactive: 0.03	inactive: 0.012	inactive: 0.018	inactive: -0.026	inactive: -0.021	inactive: -0.003	inactive: 0.063	inactive: -0.007
PSAT1 (UniProt Q9Y617)	inactive: -0.007	inactive: 0.015	inactive: -0.01	inactive: 0.008	inactive: -0.011	inactive: -0.019	inactive: -0.03	inactive: -0.028	inactive: -0.011	inactive: -0.041	inactive: 0.033	inactive: 0.015	inactive: 0.033	inactive: 0.027	inactive: -0.005	inactive: -0.006	inactive: 0.007	inactive: 0.014	inactive: 0.12	inactive: -0.013
PTPN9 (UniProt P43378)	inactive: 0.026	inactive: 0.191	inactive: 0.104	inactive: 0.108	inactive: -0.13	inactive: -0.167	inactive: 0.286	inactive: 0.001	inactive: 0.111	inactive: -0.374	inactive: 0.316	inactive: -0.043	inactive: 0.04	inactive: -0.164	inactive: 0.009	inactive: 0.284	inactive: -0.063	inactive: 0.029	inactive: -0.133	inactive: 0.297
PTTG1IP (UniProt P53801)	inactive: -0.01	inactive: -0.006	inactive: -0.02	inactive: -0.218	inactive: -0.029	inactive: -0.077	inactive: -0.237	inactive: -0.093	inactive: 0	inactive: 0.323	inactive: -0.001	inactive: 0.008	inactive: 0.154	inactive: 0.002	inactive: 0.005	inactive: 0.19	inactive: -0.054	inactive: -0.03	inactive: 0.019	inactive: -0.159
PWP1 (UniProt Q13610)	inactive: 0.063	inactive: -0.017	inactive: -0.012	inactive: 0.002	inactive: -0.046	inactive: 0.046	inactive: -0.013	inactive: -0.014	inactive: 0.008	inactive: -0.017	inactive: 0.041	inactive: -0.001	inactive: 0.003	active: 0.488	inactive: 0.055	inactive: -0.052	inactive: 0	inactive: -0.125	inactive: 0.032	inactive: -0.084
PTER (UniProt Q96BW5)	inactive: -0.05	inactive: 0.017	inactive: -0.021	inactive: -0.003	inactive: 0.018	inactive: -0.036	inactive: -0.108	inactive: -0.012	inactive: 0.028	inactive: 0.01	inactive: -0.024	inactive: -0.027	inactive: 0.015	inactive: -0.095	inactive: -0.002	inactive: 0.041	inactive: 0.014	inactive: 0.026	inactive: 0.008	inactive: 0.026
PVR (UniProt P15151)	inactive: -0.02	inactive: -0.035	inactive: 0.01	inactive: 0.214	inactive: -0.06	inactive: 0.085	inactive: -0.153	inactive: -0.022	inactive: 0.026	inactive: 0.052	inactive: 0.036	inactive: -0.014	inactive: 0.054	inactive: -0.01	inactive: 0.113	inactive: 0.057	inactive: 0.031	inactive: 0.005	inactive: -0.038	inactive: 0.034
PSMB9 (UniProt P28065)	inactive: -0.052	inactive: 0.076	inactive: 0.006	inactive: 0.034	inactive: 0.31	inactive: -0.076	inactive: 0.027	inactive: -0.04	inactive: 0.139	inactive: -0.016	inactive: -0.093	inactive: 0.028	inactive: -0.098	inactive: -0.033	inactive: 0.01	inactive: 0.013	inactive: -0.087	inactive: -0.033	inactive: -0.25	inactive: 0.022
PSMD7 (UniProt P51665)	inactive: 0.024	inactive: 0.021	inactive: -0.031	inactive: 0.002	inactive: -0.007	inactive: -0.015	inactive: 0.014	inactive: -0.013	inactive: 0.016	inactive: -0.026	inactive: -0.009	inactive: -0.006	inactive: -0.052	inactive: 0.001	inactive: 0.011	inactive: -0.039	inactive: -0.005	inactive: 0.012	inactive: -0.046	inactive: 0.001
PTTG1 (UniProt O95997)	inactive: -0.024	inactive: -0.117	inactive: 0.042	inactive: 0.087	inactive: -0.097	inactive: 0.117	inactive: 0.007	inactive: -0.022	inactive: -0.05	inactive: 0.059	inactive: 0.029	inactive: -0.085	inactive: -0.136	inactive: -0.041	inactive: 0.005	inactive: 0.143	inactive: 0.008	inactive: 0.135	inactive: -0.102	inactive: 0.039

A different layout for some results above:

| Target | log2 fold change (alvocidib) | log2 fold change (Tubastatin A) | log2 fold change [1] | log2 fold change (defactinib) | log2 fold change [2] | log2 fold change (encorafenib) | log2 fold change [3] | log2 fold change (alisertib) | log2 fold change [4] | log2 fold change (gefitinib) | log2 fold change (lapatinib) | log2 fold change (pictilisib) | log2 fold change (crizotinib) | log2 fold change [5] | log2 fold change (duvelisib) | log2 fold change (gandotinib) | log2 fold change (tozasertib) | log2 fold change (doramapimod) | log2 fold change (bafetinib) | log2 fold change [6] |
| --- | --- | --- | --- | --- | --- | --- | --- | --- | --- | --- | --- | --- | --- | --- | --- | --- | --- | --- | --- | --- |
| PSMD4 (UniProt P55036) | inactive: 0.005 | inactive: 0.004 | inactive: -0.013 | inactive: 0.008 | inactive: 0.036 | inactive: 0.007 | inactive: -0.017 | inactive: -0.024 | inactive: -0.005 | inactive: -0.034 | inactive: -0.005 | inactive: -0.005 | inactive: -0.001 | inactive: 0.038 | inactive: 0.008 | inactive: 0.003 | inactive: -0.019 | inactive: 0.005 | inactive: 0.022 | inactive: -0.026 |
| PTRH2 (UniProt Q9Y3E5) | inactive: 0.109 | inactive: 0.065 | inactive: 0.053 | inactive: 0.049 | inactive: 0.072 | inactive: -0.001 | inactive: -0.029 | inactive: -0.087 | inactive: 0.007 | inactive: -0.051 | inactive: 0.042 | inactive: -0.019 | inactive: -0.081 | inactive: 0.032 | inactive: 0.018 | inactive: -0.04 | inactive: -0.008 | inactive: 0.028 | inactive: 0.031 | inactive: -0.07 |
| PSRC1 (UniProt Q6PGN9) | inactive: 0.05 | inactive: -0.069 | inactive: 0.13 | inactive: 0.009 | inactive: -0.087 | inactive: 0.152 | inactive: -0.066 | inactive: 0.018 | inactive: -0.065 | inactive: 0.064 | inactive: 0.039 | inactive: 0.01 | inactive: -0.044 | inactive: -0.068 | inactive: -0.015 | inactive: 0.234 | inactive: 0.118 | inactive: 0.233 | inactive: -0.113 | inactive: 0.095 |
| PTPN9 (UniProt P43378) | inactive: 0.026 | inactive: 0.191 | inactive: 0.104 | inactive: 0.108 | inactive: -0.13 | inactive: -0.167 | inactive: 0.286 | inactive: 0.001 | inactive: 0.111 | inactive: -0.374 | inactive: 0.316 | inactive: -0.043 | inactive: 0.04 | inactive: -0.164 | inactive: 0.009 | inactive: 0.284 | inactive: -0.063 | inactive: 0.029 | inactive: -0.133 | inactive: 0.297 |
